One substance from US6638907 (BIOSTRATUM, dated 2003) can be followed below.

Chains of the proteins cited; added tags and fusions are not shown. Lines headed by an entry give the natural chain unless they say otherwise; changes in a name come on top.
UniProt P23229: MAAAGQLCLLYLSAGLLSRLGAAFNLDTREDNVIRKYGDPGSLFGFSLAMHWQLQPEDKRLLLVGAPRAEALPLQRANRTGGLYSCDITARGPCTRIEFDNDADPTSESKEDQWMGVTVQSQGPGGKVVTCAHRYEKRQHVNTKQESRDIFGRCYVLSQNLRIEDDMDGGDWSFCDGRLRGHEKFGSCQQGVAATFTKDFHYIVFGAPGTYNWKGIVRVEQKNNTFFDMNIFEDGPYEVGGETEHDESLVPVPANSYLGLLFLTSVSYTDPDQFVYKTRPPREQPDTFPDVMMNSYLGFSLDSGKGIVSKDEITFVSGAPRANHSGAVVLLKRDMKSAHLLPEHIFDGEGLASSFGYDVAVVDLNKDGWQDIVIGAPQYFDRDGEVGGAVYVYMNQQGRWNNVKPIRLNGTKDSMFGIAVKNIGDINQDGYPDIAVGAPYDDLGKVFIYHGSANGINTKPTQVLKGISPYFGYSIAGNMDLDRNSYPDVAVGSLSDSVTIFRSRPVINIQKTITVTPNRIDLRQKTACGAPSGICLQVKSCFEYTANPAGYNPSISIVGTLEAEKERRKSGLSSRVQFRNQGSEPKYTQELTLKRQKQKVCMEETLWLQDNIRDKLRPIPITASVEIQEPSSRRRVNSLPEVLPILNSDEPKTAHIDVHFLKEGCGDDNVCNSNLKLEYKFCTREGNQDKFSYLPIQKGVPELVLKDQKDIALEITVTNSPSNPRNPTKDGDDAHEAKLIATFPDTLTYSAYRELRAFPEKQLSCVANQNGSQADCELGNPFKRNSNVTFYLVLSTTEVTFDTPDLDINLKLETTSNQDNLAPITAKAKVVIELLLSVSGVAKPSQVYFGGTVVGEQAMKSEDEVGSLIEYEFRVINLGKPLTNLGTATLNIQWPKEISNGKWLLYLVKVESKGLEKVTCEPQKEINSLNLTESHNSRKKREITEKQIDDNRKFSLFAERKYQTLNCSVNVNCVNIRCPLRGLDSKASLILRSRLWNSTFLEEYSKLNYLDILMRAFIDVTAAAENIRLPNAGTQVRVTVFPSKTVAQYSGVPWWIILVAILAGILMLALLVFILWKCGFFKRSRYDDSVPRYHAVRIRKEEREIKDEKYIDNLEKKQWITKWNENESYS
UniProt P05556: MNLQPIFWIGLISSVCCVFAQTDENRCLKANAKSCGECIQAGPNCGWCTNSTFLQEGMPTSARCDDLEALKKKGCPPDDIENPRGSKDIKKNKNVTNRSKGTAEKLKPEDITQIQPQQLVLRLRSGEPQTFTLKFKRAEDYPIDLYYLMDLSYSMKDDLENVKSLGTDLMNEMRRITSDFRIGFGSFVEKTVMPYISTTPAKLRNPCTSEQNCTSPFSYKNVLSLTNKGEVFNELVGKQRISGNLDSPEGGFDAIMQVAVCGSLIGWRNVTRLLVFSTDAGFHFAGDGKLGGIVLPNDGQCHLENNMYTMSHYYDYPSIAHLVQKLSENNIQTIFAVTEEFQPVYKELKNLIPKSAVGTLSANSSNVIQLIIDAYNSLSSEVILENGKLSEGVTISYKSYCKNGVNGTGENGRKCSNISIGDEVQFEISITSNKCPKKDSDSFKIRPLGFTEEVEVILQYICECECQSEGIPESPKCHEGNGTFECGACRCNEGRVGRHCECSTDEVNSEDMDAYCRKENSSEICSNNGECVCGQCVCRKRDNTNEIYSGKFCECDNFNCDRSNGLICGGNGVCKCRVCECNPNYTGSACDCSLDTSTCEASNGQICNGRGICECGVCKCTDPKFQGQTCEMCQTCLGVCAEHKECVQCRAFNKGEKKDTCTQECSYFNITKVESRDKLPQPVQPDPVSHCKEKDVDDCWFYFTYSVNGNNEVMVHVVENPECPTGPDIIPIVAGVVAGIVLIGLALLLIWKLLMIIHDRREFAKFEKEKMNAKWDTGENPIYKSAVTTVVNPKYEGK
UniProt P19137: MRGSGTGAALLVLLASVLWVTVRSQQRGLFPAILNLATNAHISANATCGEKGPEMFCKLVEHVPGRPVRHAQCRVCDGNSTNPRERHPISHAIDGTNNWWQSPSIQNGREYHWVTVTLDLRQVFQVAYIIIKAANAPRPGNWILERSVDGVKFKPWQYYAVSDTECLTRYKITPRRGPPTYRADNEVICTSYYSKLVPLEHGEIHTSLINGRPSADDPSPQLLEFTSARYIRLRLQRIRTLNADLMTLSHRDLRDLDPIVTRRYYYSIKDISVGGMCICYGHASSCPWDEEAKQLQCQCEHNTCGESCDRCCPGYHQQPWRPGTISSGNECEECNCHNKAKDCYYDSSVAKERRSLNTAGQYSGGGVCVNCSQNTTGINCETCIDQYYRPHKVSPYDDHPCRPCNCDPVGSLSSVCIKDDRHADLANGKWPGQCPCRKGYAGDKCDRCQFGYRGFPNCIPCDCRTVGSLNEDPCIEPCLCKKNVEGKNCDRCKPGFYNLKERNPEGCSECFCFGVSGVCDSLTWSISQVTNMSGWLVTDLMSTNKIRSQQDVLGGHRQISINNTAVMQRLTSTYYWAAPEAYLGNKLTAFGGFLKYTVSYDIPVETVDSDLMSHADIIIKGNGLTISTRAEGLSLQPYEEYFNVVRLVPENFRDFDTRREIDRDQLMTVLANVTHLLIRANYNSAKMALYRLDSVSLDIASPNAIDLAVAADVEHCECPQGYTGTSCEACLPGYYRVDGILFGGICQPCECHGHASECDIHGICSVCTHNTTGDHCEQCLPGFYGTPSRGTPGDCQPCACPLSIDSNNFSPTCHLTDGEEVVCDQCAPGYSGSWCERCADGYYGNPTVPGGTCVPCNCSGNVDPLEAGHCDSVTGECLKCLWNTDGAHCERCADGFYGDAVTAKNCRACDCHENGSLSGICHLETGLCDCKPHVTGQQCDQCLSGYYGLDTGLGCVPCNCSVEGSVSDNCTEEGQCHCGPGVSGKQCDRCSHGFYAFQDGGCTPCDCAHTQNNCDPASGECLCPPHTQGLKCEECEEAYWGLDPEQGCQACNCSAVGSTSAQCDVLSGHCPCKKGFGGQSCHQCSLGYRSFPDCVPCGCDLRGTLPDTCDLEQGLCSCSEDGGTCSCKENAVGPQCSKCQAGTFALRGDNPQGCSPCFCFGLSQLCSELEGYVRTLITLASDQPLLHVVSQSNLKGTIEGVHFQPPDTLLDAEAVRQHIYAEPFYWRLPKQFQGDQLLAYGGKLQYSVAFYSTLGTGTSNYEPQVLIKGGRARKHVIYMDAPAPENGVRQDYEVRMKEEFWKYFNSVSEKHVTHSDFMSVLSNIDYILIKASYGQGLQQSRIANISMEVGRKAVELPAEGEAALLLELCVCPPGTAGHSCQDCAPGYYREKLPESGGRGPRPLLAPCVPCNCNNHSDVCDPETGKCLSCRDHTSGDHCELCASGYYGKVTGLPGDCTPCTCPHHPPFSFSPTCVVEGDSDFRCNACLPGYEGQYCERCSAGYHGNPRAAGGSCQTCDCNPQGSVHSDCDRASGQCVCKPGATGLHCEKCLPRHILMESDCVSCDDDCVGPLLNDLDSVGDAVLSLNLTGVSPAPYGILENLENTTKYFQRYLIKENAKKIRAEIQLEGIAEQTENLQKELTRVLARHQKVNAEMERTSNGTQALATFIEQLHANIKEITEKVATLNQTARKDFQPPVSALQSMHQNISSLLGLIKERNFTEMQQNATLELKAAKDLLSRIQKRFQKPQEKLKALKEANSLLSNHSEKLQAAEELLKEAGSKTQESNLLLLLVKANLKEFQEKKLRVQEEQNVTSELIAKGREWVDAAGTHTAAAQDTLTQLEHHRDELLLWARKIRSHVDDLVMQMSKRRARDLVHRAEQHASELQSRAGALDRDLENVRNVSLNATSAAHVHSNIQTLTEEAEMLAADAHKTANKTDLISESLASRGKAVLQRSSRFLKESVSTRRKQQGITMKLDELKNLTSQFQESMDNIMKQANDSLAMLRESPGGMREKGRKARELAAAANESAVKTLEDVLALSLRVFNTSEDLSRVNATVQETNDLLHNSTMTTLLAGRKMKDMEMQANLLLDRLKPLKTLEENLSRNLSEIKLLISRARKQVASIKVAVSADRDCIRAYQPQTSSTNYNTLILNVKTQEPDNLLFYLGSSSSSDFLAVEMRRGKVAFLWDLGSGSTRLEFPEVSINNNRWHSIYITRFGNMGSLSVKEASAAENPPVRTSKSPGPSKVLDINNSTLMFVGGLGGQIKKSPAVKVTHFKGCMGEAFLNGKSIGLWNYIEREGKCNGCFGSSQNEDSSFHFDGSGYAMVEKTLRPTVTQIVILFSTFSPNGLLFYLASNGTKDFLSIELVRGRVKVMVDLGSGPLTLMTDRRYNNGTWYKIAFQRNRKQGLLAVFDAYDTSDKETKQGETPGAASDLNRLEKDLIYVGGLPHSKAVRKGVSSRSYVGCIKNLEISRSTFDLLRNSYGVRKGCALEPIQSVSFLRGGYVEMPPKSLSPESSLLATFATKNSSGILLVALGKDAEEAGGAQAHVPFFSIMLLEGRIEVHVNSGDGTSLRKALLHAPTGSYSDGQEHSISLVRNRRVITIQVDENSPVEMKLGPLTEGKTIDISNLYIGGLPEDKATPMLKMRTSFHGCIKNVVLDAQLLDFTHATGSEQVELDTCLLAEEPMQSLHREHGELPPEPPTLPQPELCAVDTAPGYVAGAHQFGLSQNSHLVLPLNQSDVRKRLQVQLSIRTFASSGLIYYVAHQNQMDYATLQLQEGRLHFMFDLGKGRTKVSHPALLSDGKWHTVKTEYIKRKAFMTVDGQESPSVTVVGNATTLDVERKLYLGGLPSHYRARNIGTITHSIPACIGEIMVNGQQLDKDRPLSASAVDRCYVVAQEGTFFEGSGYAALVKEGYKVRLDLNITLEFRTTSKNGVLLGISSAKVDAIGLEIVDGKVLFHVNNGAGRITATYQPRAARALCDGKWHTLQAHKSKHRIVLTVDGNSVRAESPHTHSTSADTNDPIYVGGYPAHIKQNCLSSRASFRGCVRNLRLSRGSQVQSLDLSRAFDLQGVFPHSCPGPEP

The assay has as its target integrin α6β1 on human cells (α6-transfected K562 cells; HT-1080 cells) (human) (UniProt P23229+P05556). Nature of the assay: adhesion of α6-transfected K562 cells to coated laminin 1.

No constants are given. Whether binding was seen depends on the method and setting. Some binding calls cover weakened binding; strength is not graded here.

Take “Laminin 1 from EHS-tumor (from UniProt P19137 25-3083; P02469 22-1786; P02468 34-1607)”: the binding entry is on record as “binds”.
